Test results published in patent US20120014870A1 (FORERUNNER PHARMA RESEARCH, published 2012).

Assays:
[1] = biological target: mouse LGR7 expressed on BaF3 cells (HA-mLGR7/BaF3) (mouse); test: FACS analysis of HA-mLGR7/BaF3 (geometric mean values)
[2] = biological target: mouse LGR7 expressed on BaF3 cells (HA-mLGR7/BaF3) (mouse); test: flow cytometry on HA-mLGR7/BaF3 cells

Binder | binding [1] | binding [2]
22DA17 (antibody, IgG2b, V domains shown, Mouse hybridoma antibody, isotype IgG2b; also called Bio-22DA17 (biotinylated form)) VH: QVQLQQSGAELVRPGVSVKLSCKASGYSLTTYWMNWVKQRPGQGLEWIGMIHPSDSETVINQKFKDKATLTVDKSSSTAYMQLSSPTSEDSAVYYCARWDYDYYFDYWGQGTTLTVSS VL: DVLMTQTPLSLPVSLGDQASISCRSSQSIVHSNGNTYLEWYLQKPGQSPNLLIYKVSNRFSGVPDRFSGSGSGTDFTLKISRVEAEDLGVYYCFQGSHVPFTFGSGTKLEIK | binds | binds
22DA23 (antibody, IgG1, V domains shown, Mouse hybridoma antibody, isotype IgG1; also called anti-human LGR7 monoclonal antibody 22DA23) VH: EIQLQQSRPELVRPGASVKVSCQASGYAFTNYNMYWVKQSHGKSLEWIGYIDPYNDDTTYNQKFKGKATLTVDKSSSTAYMHLNSLTSEDSAVFYCARFRLGYYAMDYWGQGASVTVSS VL: DIVLTQSPASLAVSLGQRATISCKASQSVDYDLDSYMNWYQQKPGQPPKLLIYVASNLESGIPARFSGSGSGTDFTLNIHPVEEEDAATYYCQQSNEDPFTFGSGTKLEIK | binds | binds

These are yes or no findings as the source states them, for the method shown. Binding calls can cover weak binding; strength is not graded here.
